Source: ChEMBL document CHEMBL3988442, “University of Dundee, Small-Polar-MMV Screening Library” (2021).

A: 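Whole-cell assay for inhibitors of Mycobacterium tuberculosis growth, labelled Cornell in the record; the read-out is not stated. The concentration is filed as 10 mM, unlikely as a test dose, so the dose is not known. The record gives no direction; compounds strong in two other growth screens of this library score well above the rest, so higher reads as stronger inhibition. Of about 53,000 compounds tested this way, about 900 (1.7%) reached 50% or more in at least one test.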
B: 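Assay on Mycobacterium tuberculosis, filed only as a heat shock assay from Cornell; the read-out is not stated. The concentration is filed as 10 mM, unlikely as a test dose, so the dose is not known. The record gives no direction; compounds that gave an IC50 in retests scored well above the rest, so higher reads as stronger inhibition. Of about 69,000 compounds tested this way, about 930 (1.4%) reached 50% or more in at least one test.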

Each number is a percent effect as filed.
The record does not define 0% and 100%; most values in the screen are far below 50% and negative numbers occur (in some assays of this library far below -100).
The compounds are a random part of those screened.
Two or more numbers in one place are separate tests of the same structure; such repeats can differ widely.
A dash means the value is not listed here; it may have been measured.

SMILES,A,B
[H][C@]12CC[C@]([H])(CN(C(=O)N(C)C)C1)N(C/C=C/c1ccc(F)cc1)C2,-,9.986%
COc1ccc(-n2nc(C(C)=O)c(C(C)=O)c2C)cc1Cl,7.556%,-17.49%
CCN1CC2(CC1=O)CN(C(C)=O)CCN(S(=O)(=O)CC)C2 (centres undefined),5.295%,8.494%
O=C(O)C(F)(F)F.[H][C@@]12C[C@H](C(=O)N(C)C)CN(Cc3ccc(F)cc3)[C@]1([H])CCO2,29.15%,-8.582%
Cc1cnn(CC2CCCCN2C(=O)c2ccc3[nH]cnc3c2)c1 (centres undefined),-,0.8021%
N#CC1CCCN(C(=O)Cn2ncc(N3CCCC3)cc2=O)C1 (centres undefined),16.74%,6.248%
[H][C@@]12CN(Cc3ccccn3)C[C@]1([H])N(CCCc1ccc(F)cc1)C(=O)O2,3.051%,21.07%
O=C(Cc1ccsc1)N1CCCC(c2n[nH]c3nccnc23)C1 (centres undefined),-6.429%,-18.79%
O=C(CSCc1ccncc1)N(Cc1ccsc1)C1CC1,29.2%,-36.63%
[H][C@@]12CCCC[C@]1([H])C(=O)N(c1cnn(Cc3cccc(OC)c3)c1)C2=O,-7.065%,-10.78%
CC1=Nc2c(c(=O)[nH]n2C2CCCCC2)C(c2ccc(C(=O)O)cc2)S1 (centres undefined),34.86% and 39.14%,49.35% and 8.136%
CC(C)c1nc(-c2cc(C(=O)NCCN(C)C)c3ccccn23)cs1.O=C(O)C(F)(F)F,-26.61%,8.366%
O=C(NC1CCN(c2ncccn2)CC1)c1sccc1C1CC1,-,-1.913%
O=C(O)C(F)(F)F.O=C(O)C(F)(F)F.O=C1CC(c2ccncc2)C2(CCN(CC3CC3)CC2)N1 (centres undefined),-9.195%,-16.85%
CC(C)OCCN(Cc1cccc(O)c1)C1CCC(O)CC1 (centres undefined),23.54%,-23.59%
O=C(C1CC=CC1)N1CCc2ncnc(-c3ccncc3)c2CC1,11.6%,-21.71%
Cc1ccc(CN(C(=O)C(C)S(C)(=O)=O)C2CC2)cc1C (centres undefined),-10.65%,13.09%
CCNC(=O)Cn1ncc(N(C)CCc2ccccc2)cc1=O,-,-22.75%
O=C(c1ccncc1F)N1CCOC(c2cccc(O)c2)C1 (centres undefined),13.75%,0.8563%
COCc1cncc2c1CCN(Cc1cccnc1)C2,15.27%,-11.18%
CCCn1cnc(NC(=O)NCC2CCS(=O)(=O)C2)n1 (centres undefined),-27.52%,-4.915%
O=C(c1cn(CC(=O)N2CCCCCC2)c2ccccc12)C1CC1,-1.271%,5.284%
COCc1noc(Cn2c(=O)[nH]c3ccccc32)n1,21.73%,4.587%
Cc1noc(C)c1CNC(=O)N1CCC(CO)CC1,-1.361%,13.08%
Cc1n[nH]c2nc(-c3cc(Br)ccc3O)cc(C(=O)O)c12,16.47%,3.472%
COCCC(=O)N1CCCC1c1nccc(C)n1 (centres undefined),-19.45%,-0.7493%
COc1ccc2c(ccn2CCC(=O)Nc2n[nH]c(CC(C)C)n2)c1,35.78%,-6.664%
O=C1CCN(C(=O)C2(c3ccc(Br)cc3)CC2)CCN1,4.556%,-0.9692%
[H][C@@]12CCN(c3cnccn3)C[C@@]1(C(=O)O)CCCN2Cc1nccs1,-7.968%,-25.23%
CC(C)C(C)NC(=O)c1cc(Br)c2c(c1)OCCO2 (centres undefined),16.22%,-21.51%
CSc1nccc(NCc2cc3n(n2)CCCN(C(=O)C2CCC2)C3)n1,-24.61%,-17.98%
c1ccc(N2CCN(Cc3cnc(C4CCCCO4)nc3)CC2)cc1 (centres undefined),2.974%,9.546%
CCc1ccc(C2COCCN2C(=O)Nc2ccc(C(N)=O)c(Cl)c2)o1 (centres undefined),7.039%,9.06%
c1ccc(CCc2n[nH]c(C3CCC3)n2)cc1,24.7%,3.345%
CCOCCC(=O)N(C)CC1Cc2ccccc2CN1C (centres undefined),-2.905%,-13.5%
C1CC(CN2CCCCC2C2OCCO2)C1 (centres undefined),15.87%,2.361%
CC(C)CCn1nc(CNc2ccc(Br)cc2)nc1O,35.52%,-17.12%
Cc1nc(Cn2c3c(ccc2=O)CCN(CC2CC2)CC3)cs1.O=C(O)C(F)(F)F.O=C(O)C(F)(F)F,21.51%,-16.56%
O=C(CCC1CCCO1)NCCCO (centres undefined),-7.829%,-7.133%
[H][C@@]12CCN(S(=O)(=O)CCC)C[C@]1(c1nnc(C)o1)CCO2,-14.13%,-9.55%
CCN(C(c1cccnc1)c1ccc(F)c(F)c1)S(C)(=O)=O (centres undefined),-25.51%,-12.9%
Cc1ccc(CC(=O)N2CCCC(c3n[nH]c4nccnc34)C2)cc1 (centres undefined),-2.097%,-15.7%
COc1ccccc1S(=O)(=O)Nc1cnc(O)cc1C,1.312%,19.51%
[H][C@@]12CCN(C(=O)N3CCOCC3)[C@]1([H])C(=O)N(Cc1ccccc1)C(=O)N2,-,-0.9537%
Cn1ccc(C(=O)NCc2cccc(NC(=O)C3CCC3)c2)cc1=O,15.24%,-7.481%

Some entries from above, unchanged:

{"smiles": "O=C(C1CC=CC1)N1CCc2ncnc(-c3ccncc3)c2CC1", "A": 11.6, "B": -21.71}
{"smiles": "[H][C@@]12CCCC[C@]1([H])C(=O)N(c1cnn(Cc3cccc(OC)c3)c1)C2=O", "A": -7.065, "B": -10.78}
{"smiles": "Cc1cnn(CC2CCCCN2C(=O)c2ccc3[nH]cnc3c2)c1", "stereo": "centres undefined", "B": 0.8021}
{"smiles": "Cc1nc(Cn2c3c(ccc2=O)CCN(CC2CC2)CC3)cs1.O=C(O)C(F)(F)F.O=C(O)C(F)(F)F", "A": 21.51, "B": -16.56}